The supplement of paper PMC10849652
This is one part of the list.

Amino acid sequences for entries named in this document (tags omitted). A change or cut given only in a name is not applied to a line headed by its entry.
UniProt Q8N183: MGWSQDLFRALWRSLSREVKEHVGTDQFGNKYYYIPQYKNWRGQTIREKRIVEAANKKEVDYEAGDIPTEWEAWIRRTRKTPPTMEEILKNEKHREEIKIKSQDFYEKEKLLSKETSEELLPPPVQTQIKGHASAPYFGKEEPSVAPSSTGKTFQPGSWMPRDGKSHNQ
UniProt Q9UK23: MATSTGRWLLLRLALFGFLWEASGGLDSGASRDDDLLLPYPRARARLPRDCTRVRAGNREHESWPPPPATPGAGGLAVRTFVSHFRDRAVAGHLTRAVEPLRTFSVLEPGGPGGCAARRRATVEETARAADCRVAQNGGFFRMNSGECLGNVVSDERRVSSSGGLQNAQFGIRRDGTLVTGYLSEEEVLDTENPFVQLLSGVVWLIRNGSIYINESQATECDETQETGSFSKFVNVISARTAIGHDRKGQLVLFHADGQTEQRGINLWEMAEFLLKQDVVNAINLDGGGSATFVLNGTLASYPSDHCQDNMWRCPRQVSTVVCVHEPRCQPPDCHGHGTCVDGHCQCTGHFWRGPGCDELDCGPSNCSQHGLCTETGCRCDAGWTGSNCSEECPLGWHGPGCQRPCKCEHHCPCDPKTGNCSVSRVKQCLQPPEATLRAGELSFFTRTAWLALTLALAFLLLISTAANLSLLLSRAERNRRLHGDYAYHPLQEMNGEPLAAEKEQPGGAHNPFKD
UniProt Q15788: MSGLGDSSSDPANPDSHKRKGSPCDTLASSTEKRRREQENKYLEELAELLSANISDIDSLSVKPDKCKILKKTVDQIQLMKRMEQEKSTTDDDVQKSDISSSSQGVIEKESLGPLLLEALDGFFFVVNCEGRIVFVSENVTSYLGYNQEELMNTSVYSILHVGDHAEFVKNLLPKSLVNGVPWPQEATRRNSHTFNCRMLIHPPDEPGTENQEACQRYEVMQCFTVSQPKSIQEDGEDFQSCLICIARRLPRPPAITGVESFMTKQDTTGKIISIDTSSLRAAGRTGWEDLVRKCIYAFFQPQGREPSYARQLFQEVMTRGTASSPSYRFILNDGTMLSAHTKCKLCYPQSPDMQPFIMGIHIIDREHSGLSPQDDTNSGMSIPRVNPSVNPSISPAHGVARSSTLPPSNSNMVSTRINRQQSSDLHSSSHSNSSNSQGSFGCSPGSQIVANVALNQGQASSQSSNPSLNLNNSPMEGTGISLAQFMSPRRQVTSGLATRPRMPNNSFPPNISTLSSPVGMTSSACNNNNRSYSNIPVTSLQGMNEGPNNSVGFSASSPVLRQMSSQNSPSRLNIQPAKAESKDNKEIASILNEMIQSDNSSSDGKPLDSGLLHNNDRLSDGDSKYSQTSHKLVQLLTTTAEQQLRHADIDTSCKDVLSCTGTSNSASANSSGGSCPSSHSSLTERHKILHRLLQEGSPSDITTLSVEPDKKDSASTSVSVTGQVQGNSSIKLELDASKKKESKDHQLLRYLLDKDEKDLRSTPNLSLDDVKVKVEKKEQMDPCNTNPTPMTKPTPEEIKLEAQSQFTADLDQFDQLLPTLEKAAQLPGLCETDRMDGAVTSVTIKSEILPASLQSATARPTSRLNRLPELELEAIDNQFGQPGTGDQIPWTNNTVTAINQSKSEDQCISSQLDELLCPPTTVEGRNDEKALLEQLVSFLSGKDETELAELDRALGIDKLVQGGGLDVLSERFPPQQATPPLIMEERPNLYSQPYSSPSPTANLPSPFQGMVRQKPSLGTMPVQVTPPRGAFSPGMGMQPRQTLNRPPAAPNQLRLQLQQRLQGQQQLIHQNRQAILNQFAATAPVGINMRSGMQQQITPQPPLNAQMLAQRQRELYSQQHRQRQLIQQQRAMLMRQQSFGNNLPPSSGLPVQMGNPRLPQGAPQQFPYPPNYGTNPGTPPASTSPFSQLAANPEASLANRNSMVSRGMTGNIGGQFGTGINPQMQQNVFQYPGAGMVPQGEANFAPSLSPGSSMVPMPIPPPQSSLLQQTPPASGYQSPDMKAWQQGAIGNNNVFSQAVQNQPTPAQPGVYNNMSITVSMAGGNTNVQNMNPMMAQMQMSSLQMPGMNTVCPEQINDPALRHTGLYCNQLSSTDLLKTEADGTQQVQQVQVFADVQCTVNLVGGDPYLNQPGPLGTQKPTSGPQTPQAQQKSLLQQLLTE
UniProt P56181: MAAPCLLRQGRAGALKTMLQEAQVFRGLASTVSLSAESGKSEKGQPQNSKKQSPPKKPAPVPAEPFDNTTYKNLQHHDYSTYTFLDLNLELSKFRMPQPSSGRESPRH
UniProt Q92542, whole entry, looked up: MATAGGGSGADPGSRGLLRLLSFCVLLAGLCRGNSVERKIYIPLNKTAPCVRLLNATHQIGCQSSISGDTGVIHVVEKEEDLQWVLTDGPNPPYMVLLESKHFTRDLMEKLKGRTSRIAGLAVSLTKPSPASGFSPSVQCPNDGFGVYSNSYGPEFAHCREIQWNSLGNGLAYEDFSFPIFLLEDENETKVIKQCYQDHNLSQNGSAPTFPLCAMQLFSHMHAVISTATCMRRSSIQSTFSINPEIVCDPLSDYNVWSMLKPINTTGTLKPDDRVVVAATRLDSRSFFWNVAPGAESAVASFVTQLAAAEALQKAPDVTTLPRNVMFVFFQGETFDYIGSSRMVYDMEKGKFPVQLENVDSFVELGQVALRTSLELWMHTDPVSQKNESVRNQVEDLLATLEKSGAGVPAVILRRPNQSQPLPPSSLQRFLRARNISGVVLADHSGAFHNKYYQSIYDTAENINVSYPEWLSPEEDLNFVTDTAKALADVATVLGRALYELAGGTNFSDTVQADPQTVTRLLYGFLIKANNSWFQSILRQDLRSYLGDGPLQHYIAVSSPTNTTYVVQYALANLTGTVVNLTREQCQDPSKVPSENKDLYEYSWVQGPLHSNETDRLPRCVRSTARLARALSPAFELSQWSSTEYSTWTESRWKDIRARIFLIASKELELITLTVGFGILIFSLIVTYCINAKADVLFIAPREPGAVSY
UniProt P43490: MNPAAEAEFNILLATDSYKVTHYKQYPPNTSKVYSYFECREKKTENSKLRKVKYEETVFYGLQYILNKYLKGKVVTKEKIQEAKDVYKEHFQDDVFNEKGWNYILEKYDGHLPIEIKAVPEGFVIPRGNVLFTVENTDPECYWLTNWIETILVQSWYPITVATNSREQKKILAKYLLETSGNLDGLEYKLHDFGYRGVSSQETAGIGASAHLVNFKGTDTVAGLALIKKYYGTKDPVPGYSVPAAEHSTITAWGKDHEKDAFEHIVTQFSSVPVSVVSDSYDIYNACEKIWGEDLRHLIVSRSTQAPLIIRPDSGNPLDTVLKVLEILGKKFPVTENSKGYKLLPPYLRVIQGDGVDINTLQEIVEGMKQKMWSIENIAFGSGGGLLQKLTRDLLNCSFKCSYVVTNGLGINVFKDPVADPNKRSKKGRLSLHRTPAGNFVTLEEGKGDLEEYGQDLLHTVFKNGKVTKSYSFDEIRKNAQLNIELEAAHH
UniProt Q147X3: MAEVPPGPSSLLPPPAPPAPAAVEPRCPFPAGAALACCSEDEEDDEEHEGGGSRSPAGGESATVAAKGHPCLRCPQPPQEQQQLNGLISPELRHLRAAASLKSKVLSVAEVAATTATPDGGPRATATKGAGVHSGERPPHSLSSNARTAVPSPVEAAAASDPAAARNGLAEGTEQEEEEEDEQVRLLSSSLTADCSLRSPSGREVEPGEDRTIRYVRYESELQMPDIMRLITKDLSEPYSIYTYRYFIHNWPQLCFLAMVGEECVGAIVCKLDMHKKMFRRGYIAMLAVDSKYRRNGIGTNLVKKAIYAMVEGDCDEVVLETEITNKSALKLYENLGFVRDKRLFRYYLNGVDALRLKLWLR
UniProt Q9GZZ1: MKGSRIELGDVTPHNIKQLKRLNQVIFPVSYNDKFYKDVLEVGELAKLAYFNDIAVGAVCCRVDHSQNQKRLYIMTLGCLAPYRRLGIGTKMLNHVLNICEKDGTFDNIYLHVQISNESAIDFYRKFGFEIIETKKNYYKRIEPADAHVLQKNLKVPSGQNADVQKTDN
UniProt Q8NEY1: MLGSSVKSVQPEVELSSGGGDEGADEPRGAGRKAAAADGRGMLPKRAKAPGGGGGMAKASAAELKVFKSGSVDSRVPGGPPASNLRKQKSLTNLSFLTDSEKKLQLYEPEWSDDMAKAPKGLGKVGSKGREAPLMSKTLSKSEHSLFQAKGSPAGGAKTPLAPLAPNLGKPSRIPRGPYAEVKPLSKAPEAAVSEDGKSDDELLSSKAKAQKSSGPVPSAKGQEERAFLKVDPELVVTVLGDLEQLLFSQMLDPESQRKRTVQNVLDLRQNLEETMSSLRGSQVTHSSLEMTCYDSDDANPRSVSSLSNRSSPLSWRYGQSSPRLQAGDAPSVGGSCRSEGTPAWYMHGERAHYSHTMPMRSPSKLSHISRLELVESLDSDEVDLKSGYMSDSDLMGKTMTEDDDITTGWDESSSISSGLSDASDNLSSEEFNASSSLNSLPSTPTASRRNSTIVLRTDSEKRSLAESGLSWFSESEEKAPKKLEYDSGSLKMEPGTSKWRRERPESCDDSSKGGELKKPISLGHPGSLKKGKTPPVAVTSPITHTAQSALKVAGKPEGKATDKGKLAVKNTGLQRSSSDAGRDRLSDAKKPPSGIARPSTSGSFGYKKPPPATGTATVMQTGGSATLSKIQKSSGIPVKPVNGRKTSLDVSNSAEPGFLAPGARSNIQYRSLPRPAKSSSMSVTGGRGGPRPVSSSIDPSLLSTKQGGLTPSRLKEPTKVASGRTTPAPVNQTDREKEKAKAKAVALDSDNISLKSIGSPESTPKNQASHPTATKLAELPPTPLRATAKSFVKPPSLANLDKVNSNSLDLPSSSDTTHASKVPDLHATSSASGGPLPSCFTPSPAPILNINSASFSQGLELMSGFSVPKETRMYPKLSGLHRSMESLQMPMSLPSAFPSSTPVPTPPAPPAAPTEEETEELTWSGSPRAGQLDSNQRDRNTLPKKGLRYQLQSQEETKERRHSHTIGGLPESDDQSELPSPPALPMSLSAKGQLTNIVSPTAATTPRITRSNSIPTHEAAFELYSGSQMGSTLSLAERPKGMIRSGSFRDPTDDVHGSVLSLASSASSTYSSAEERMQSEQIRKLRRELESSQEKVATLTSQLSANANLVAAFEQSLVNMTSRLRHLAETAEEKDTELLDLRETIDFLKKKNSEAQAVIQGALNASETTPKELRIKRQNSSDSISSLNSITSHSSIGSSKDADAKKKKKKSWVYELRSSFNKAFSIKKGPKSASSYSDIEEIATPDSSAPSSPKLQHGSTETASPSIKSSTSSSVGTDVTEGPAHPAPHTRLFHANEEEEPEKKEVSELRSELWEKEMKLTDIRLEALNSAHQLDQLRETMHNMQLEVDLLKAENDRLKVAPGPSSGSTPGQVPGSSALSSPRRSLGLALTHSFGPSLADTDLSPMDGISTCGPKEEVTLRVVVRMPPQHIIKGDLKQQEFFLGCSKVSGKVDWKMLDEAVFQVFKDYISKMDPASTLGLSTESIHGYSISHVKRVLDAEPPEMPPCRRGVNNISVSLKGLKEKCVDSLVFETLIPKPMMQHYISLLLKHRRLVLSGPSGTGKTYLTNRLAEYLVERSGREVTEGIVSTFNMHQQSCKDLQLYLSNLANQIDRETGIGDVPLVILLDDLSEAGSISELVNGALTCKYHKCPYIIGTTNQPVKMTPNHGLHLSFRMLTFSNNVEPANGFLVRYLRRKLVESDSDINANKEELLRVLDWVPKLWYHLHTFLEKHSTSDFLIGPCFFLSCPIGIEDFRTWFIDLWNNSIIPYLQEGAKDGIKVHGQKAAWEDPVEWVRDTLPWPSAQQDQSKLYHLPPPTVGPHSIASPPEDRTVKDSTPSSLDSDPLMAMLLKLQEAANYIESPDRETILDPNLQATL
UniProt P19404, whole entry, looked up: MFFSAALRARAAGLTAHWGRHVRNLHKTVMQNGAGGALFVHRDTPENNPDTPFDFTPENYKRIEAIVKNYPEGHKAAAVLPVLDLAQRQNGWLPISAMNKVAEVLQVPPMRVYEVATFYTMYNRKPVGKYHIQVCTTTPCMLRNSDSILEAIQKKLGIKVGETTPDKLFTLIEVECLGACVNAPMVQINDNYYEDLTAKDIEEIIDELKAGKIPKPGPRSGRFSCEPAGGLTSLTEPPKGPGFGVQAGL
NBDY, A0A0U1RRE5, UniProt A0A0U1RRE5, whole entry, looked up: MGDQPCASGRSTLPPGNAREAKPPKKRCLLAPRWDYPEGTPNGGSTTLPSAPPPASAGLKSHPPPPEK
UniProt Q9UN36: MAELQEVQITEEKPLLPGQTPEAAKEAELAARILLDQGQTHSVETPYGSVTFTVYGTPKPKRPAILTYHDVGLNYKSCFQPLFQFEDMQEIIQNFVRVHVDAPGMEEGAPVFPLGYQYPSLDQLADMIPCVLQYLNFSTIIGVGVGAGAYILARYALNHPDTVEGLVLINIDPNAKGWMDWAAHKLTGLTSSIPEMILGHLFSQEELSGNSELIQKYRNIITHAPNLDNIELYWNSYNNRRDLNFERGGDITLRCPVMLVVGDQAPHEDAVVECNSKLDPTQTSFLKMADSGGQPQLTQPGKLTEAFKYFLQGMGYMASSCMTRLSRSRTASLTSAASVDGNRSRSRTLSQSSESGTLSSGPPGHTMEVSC

compound: CC1=C(SC2=C1C(=N[C@H](C3=NN=C(N32)C)CC(=O)N)C4=CC=C(C=C4)Cl)C; assay: log2 fold change, soluble protein after heating vs DMSO (PISA); higher = thermal stabilisation; K562 cells, 10 uM, 30 min; active = over 0.2 and 3.5 SD of the protein, either way, in both replicates (recomputed)
Method in brief: (§1)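 For each measurement, 10 μM compound was applied for 30 min to K562 cells at 2×10^6 cells/mL. Aliquots were heated for 3 min across 48°C-58°C, pooled, and extracted in PBS with 0.5% NP-40 at 4°C; the supernatant after 21,000xg for 90 min was soluble protein. This was quantified by TMTpro 16plex LC-MS/MS with channel sums equalised, and thermal stability was reported relative to control samples from duplicates, on a log2 fold-change scale.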

Question: NDUFAF2 (UniProt Q8N183) was tested. Which log2 fold change did it give?
Answer: inactive: 0.024

Question: Which log2 fold change does the source give for NAGPA (UniProt Q9UK23) here?
Answer: inactive: -0.048

Question: With NA, A0A1W2PSA9 as the target, how does the log2 fold change read?
Answer: inactive: -0.046

Question: For NCOA1 (UniProt Q15788), which log2 fold change is on record?
Answer: inactive: -0.032

Question: Which log2 fold change does the source give for NCOA4 isoform 4 (UniProt Q13772) here?
Answer: inactive: -0.088

Question: For NDUFV3 isoform 2 (UniProt P56181), which log2 fold change is on record?
Answer: inactive: -0.002

Question: NBEAL2 (UniProt Q6ZNJ1) was tested. Which log2 fold change did it give?
Answer: inactive: -0.073

Question: For NDUFC1 (UniProt O43677), which log2 fold change is on record?
Answer: inactive: -0.006

Question: With NCSTN (UniProt Q92542) as the target, how does the log2 fold change read?
Answer: inactive: 0.008

Question: With NAMPT (UniProt P43490) as the target, how does the log2 fold change read?
Answer: inactive: -0.001

Question: With NAA30 (UniProt Q147X3) as the target, how does the log2 fold change read?
Answer: inactive: -0.001

Question: Which log2 fold change does the source give for NAAA (UniProt Q02083) here?
Answer: inactive: -0.374

Question: With NCK1 (UniProt P16333) as the target, how does the log2 fold change read?
Answer: inactive: 0.025

Question: With NAMPT (UniProt C9JF35) as the target, how does the log2 fold change read?
Answer: inactive: -0.091

Question: With NA, A0A2R8Y3M9 as the target, how does the log2 fold change read?
Answer: inactive: -0.069

Question: How did the log2 fold change turn out when NDC80 (UniProt O14777) was run?
Answer: inactive: -0.127

Question: How did the log2 fold change turn out when NEB isoform 3 (UniProt P20929) was run?
Answer: inactive: -0.026

Question: Which log2 fold change does the source give for NAA40 (UniProt Q86UY6) here?
Answer: inactive: -0.077

Question: Which log2 fold change does the source give for NAA50 (UniProt Q9GZZ1) here?
Answer: inactive: 0.016

Question: With NAV1 (UniProt Q8NEY1) as the target, how does the log2 fold change read?
Answer: inactive: 0.048

Question: NDUFV2 (UniProt P19404) was tested. Which log2 fold change did it give?
Answer: inactive: 0.028

Question: With NBDY, A0A0U1RRE5 as the target, how does the log2 fold change read?
Answer: inactive: 0.337

Question: How did the log2 fold change turn out when NDRG2 (UniProt Q9UN36) was run?
Answer: inactive: 0.001

compound: CC1=C2C(=CC=C1)N=C(N(C2=O)C3=CC=CC=C3C)CN4C=NC5=C(N=CN=C54)N; assay: as above
Method in brief: as §1

Question: Which log2 fold change does the source give for NCKAP5L (UniProt Q9HCH0) here?
Answer: inactive: 0.178

Question: How did the log2 fold change turn out when NDUFAF2 (UniProt Q8N183) was run?
Answer: inactive: 0.029

Question: How did the log2 fold change turn out when NCCRP1 (UniProt Q6ZVX7) was run?
Answer: inactive: -0.167

Question: Which log2 fold change does the source give for NAP1L1 (UniProt B7Z9C2) here?
Answer: inactive: 0.134

Question: NCOA1 (UniProt Q15788) was tested. Which log2 fold change did it give?
Answer: inactive: 0.156

Question: NDUFV3 isoform 2 (UniProt P56181) was tested. Which log2 fold change did it give?
Answer: inactive: -0.042

Question: With NCKIPSD (UniProt Q9NZQ3) as the target, how does the log2 fold change read?
Answer: inactive: 0.033

Question: With NCSTN (UniProt Q92542) as the target, how does the log2 fold change read?
Answer: inactive: 0.012

Question: With NAMPT (UniProt P43490) as the target, how does the log2 fold change read?
Answer: inactive: 0.008

Question: Which log2 fold change does the source give for NAA30 (UniProt Q147X3) here?
Answer: inactive: 0

Question: How did the log2 fold change turn out when NDUFV1 (UniProt E9PJL9) was run?
Answer: inactive: -0.077

Question: How did the log2 fold change turn out when NCK1 (UniProt P16333) was run?
Answer: inactive: 0.168

Question: With NDC80 (UniProt O14777) as the target, how does the log2 fold change read?
Answer: inactive: 0.021

Question: Which log2 fold change does the source give for NEB isoform 3 (UniProt P20929) here?
Answer: inactive: 0.136

Question: For NAA40 (UniProt Q86UY6), which log2 fold change is on record?
Answer: inactive: -0.085

Question: Which log2 fold change does the source give for NAA50 (UniProt Q9GZZ1) here?
Answer: inactive: 0

Question: With NDST2 (UniProt P52849) as the target, how does the log2 fold change read?
Answer: inactive: -0.027

Question: How did the log2 fold change turn out when NAV1 (UniProt Q8NEY1) was run?
Answer: inactive: -0.008

Question: How did the log2 fold change turn out when NDUFA7 (UniProt M0R0N0) was run?
Answer: inactive: 0.23

Question: Which log2 fold change does the source give for NCOA6 (UniProt Q14686) here?
Answer: inactive: -0.142

Question: Which log2 fold change does the source give for NDUFV2 (UniProt P19404) here?
Answer: inactive: -0.035

Question: NECTIN2 isoform 2 (UniProt Q92692) was tested. Which log2 fold change did it give?
Answer: inactive: -0.03

Question: Which log2 fold change does the source give for NDRG2 (UniProt Q9UN36) here?
Answer: inactive: -0.065

compound: Cc1sc2c(c1C)C(c1ccc(Cl)cc1)=N[C@@H](CC(=O)OC(C)(C)C)c1nnc(C)n1-2; assay: as above
Method in brief: as §1

Question: With NDUFAF2 (UniProt Q8N183) as the target, how does the log2 fold change read?
Answer: inactive: 0.001

Question: NAGPA (UniProt Q9UK23) was tested. Which log2 fold change did it give?
Answer: inactive: -0.004

Question: With NA, A0A1W2PSA9 as the target, how does the log2 fold change read?
Answer: inactive: 0.006

Question: Which log2 fold change does the source give for NCOA1 (UniProt Q15788) here?
Answer: inactive: 0.007

Question: Which log2 fold change does the source give for NDFIP2 (UniProt Q9NV92) here?
Answer: inactive: 0.015

Question: With NDUFV3 isoform 2 (UniProt P56181) as the target, how does the log2 fold change read?
Answer: inactive: 0.022

Question: How did the log2 fold change turn out when NCSTN (UniProt Q92542) was run?
Answer: inactive: 0.003

Question: Which log2 fold change does the source give for NAMPT (UniProt P43490) here?
Answer: inactive: -0.012

Question: For NAA30 (UniProt Q147X3), which log2 fold change is on record?
Answer: inactive: 0.013

Question: How did the log2 fold change turn out when NDUFV1 (UniProt E9PJL9) was run?
Answer: inactive: 0.108

Question: How did the log2 fold change turn out when NCK1 (UniProt P16333) was run?
Answer: inactive: 0.044

Question: NAMPT (UniProt C9JF35) was tested. Which log2 fold change did it give?
Answer: inactive: 0.009

Question: For NDC80 (UniProt O14777), which log2 fold change is on record?
Answer: inactive: 0.128

Question: How did the log2 fold change turn out when NAA40 (UniProt Q86UY6) was run?
Answer: inactive: 0.342

Question: How did the log2 fold change turn out when NAA50 (UniProt Q9GZZ1) was run?
Answer: inactive: -0.056

Question: For NDST2 (UniProt P52849), which log2 fold change is on record?
Answer: inactive: 0.032

Question: With NAV1 (UniProt Q8NEY1) as the target, how does the log2 fold change read?
Answer: inactive: 0.288

Question: Which log2 fold change does the source give for NCOA6 (UniProt Q14686) here?
Answer: inactive: -0.15

Question: Which log2 fold change does the source give for NDUFV2 (UniProt P19404) here?
Answer: inactive: -0.011

Question: How did the log2 fold change turn out when NBDY, A0A0U1RRE5 was run?
Answer: inactive: 0.006

Question: NDRG2 (UniProt Q9UN36) was tested. Which log2 fold change did it give?
Answer: inactive: -0.031

compound: c1ccc([C@@H]2C[C@H]2NC2CCNCC2)cc1; assay: as above
Method in brief: as §1

Question: With NDUFAF2 (UniProt Q8N183) as the target, how does the log2 fold change read?
Answer: inactive: 0.022

Question: Which log2 fold change does the source give for NAGPA (UniProt Q9UK23) here?
Answer: inactive: 0.061

Question: NA, A0A1W2PSA9 was tested. Which log2 fold change did it give?
Answer: inactive: 0.104

Question: With NCOA1 (UniProt Q15788) as the target, how does the log2 fold change read?
Answer: inactive: 0.012

Question: Which log2 fold change does the source give for NCOA4 isoform 4 (UniProt Q13772) here?
Answer: inactive: 0.127

Question: With NDUFV3 isoform 2 (UniProt P56181) as the target, how does the log2 fold change read?
Answer: inactive: 0.066

Question: Which log2 fold change does the source give for NBEAL2 (UniProt Q6ZNJ1) here?
Answer: inactive: -0.099

Question: Which log2 fold change does the source give for NDUFC1 (UniProt O43677) here?
Answer: inactive: 0.035

Question: How did the log2 fold change turn out when NCSTN (UniProt Q92542) was run?
Answer: inactive: 0.041

Question: How did the log2 fold change turn out when NAMPT (UniProt P43490) was run?
Answer: inactive: 0.003

Question: With NAA30 (UniProt Q147X3) as the target, how does the log2 fold change read?
Answer: inactive: -0.012

Question: Which log2 fold change does the source give for NAAA (UniProt Q02083) here?
Answer: inactive: 0.113

Question: With NCK1 (UniProt P16333) as the target, how does the log2 fold change read?
Answer: inactive: -0.085

Question: Which log2 fold change does the source give for NAMPT (UniProt C9JF35) here?
Answer: inactive: -0.087

Question: NA, A0A2R8Y3M9 was tested. Which log2 fold change did it give?
Answer: inactive: 0.161

Question: NDC80 (UniProt O14777) was tested. Which log2 fold change did it give?
Answer: inactive: -0.06

Question: For NEB isoform 3 (UniProt P20929), which log2 fold change is on record?
Answer: inactive: 0.274

Question: NAA40 (UniProt Q86UY6) was tested. Which log2 fold change did it give?
Answer: inactive: 0.131

Question: Which log2 fold change does the source give for NAA50 (UniProt Q9GZZ1) here?
Answer: inactive: -0.029

Question: With NAV1 (UniProt Q8NEY1) as the target, how does the log2 fold change read?
Answer: inactive: -0.043

Question: NDUFV2 (UniProt P19404) was tested. Which log2 fold change did it give?
Answer: inactive: 0.007

Question: NBDY, A0A0U1RRE5 was tested. Which log2 fold change did it give?
Answer: inactive: 0.118

Question: With NDRG2 (UniProt Q9UN36) as the target, how does the log2 fold change read?
Answer: inactive: 0.012
